Reference: publication PMC4140647
Results are given in words; binding and its absence hold for the method and conditions named. In cells and extracts the contact can be indirect. A yes stands for co-enrichment or nearness to the bait. Other partners may have been found. Tags and fused reporters may be left off the sequences shown.

The chains behind the UniProt entries cited, without tags or fusion partners. Where a name states a change or a piece, a line headed by the entry shows the natural chain unless it says otherwise.
UniProt Q9M0V4: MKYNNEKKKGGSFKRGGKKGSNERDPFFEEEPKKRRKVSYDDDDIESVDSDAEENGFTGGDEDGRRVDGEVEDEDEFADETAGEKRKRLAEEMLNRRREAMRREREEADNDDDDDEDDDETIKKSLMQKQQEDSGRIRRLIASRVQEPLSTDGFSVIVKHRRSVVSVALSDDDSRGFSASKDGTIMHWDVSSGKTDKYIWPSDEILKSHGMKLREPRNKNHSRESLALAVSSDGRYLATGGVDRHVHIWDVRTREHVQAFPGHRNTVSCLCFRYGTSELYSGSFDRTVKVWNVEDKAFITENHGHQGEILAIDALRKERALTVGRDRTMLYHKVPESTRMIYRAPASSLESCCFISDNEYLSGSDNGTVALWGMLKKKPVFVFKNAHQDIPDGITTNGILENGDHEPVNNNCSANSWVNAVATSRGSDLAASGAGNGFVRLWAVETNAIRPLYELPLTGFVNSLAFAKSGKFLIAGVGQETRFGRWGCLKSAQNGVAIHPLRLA
UniProt Q9M1J8: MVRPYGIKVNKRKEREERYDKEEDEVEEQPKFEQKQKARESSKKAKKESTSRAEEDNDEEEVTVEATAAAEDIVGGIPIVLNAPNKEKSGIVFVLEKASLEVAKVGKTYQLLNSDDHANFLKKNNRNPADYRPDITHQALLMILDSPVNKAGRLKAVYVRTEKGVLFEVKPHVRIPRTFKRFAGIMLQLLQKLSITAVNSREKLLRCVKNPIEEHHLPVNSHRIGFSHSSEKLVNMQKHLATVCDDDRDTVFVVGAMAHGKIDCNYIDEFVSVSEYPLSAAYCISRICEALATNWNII
UniProt Q9C8Z4: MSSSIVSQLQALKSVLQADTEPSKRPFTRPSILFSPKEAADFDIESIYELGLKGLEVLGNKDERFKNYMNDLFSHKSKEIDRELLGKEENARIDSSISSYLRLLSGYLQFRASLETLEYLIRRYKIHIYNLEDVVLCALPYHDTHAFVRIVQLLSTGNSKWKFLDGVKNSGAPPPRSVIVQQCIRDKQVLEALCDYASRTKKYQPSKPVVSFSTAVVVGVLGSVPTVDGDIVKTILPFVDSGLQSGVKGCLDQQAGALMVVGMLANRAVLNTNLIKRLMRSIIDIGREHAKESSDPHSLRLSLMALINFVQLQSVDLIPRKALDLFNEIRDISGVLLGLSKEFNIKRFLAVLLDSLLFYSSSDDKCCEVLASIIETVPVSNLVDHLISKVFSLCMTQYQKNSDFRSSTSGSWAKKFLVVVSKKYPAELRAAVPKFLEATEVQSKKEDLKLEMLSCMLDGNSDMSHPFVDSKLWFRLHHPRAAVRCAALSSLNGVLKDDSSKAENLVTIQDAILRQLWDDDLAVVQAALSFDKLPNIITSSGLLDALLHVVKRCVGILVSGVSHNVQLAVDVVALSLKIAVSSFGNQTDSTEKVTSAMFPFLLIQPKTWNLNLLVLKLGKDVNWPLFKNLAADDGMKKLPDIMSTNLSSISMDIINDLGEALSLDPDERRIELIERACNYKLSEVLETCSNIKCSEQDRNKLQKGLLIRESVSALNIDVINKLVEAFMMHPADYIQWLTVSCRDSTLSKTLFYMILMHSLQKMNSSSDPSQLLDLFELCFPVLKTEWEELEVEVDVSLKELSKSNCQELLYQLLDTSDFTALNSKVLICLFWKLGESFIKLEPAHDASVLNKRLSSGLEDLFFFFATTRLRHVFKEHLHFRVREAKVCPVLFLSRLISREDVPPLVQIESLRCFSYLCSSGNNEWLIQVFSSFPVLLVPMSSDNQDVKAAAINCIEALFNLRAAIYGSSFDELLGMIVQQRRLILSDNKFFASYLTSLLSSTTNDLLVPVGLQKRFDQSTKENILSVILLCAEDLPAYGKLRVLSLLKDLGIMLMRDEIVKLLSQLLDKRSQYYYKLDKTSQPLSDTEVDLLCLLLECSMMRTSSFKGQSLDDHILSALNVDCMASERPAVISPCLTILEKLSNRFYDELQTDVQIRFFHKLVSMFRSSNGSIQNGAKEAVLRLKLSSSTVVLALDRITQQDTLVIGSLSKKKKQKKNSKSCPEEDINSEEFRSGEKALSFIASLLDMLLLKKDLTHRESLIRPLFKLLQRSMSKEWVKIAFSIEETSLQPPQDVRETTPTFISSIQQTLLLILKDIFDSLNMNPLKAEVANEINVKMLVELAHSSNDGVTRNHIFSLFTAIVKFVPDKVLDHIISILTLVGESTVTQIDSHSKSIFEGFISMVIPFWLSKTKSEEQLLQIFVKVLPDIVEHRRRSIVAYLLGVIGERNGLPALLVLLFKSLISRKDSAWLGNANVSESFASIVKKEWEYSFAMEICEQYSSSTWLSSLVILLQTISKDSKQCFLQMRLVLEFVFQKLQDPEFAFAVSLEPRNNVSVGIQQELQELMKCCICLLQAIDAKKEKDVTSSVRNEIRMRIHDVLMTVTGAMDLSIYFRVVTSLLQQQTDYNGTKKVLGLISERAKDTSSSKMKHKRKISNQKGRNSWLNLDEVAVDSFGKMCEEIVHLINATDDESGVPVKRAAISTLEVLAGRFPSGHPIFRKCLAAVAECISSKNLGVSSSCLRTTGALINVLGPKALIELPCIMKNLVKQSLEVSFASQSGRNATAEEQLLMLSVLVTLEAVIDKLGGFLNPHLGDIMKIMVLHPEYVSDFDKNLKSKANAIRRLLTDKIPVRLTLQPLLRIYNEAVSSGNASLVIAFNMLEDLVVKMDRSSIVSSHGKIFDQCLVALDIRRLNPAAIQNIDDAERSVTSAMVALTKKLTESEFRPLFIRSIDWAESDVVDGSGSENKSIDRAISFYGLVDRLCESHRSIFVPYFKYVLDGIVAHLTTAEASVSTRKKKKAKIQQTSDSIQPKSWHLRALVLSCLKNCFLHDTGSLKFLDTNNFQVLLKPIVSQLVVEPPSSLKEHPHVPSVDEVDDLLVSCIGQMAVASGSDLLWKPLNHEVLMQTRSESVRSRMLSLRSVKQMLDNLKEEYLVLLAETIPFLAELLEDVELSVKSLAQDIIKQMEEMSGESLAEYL
UniProt Q9S826: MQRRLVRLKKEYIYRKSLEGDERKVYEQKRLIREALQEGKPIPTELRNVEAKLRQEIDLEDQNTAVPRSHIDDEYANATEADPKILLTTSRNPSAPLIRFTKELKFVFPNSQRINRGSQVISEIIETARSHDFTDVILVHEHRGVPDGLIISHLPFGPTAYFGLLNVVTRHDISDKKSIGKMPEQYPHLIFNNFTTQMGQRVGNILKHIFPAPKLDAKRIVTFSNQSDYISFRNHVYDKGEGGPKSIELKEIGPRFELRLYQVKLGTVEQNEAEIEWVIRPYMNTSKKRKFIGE
UniProt F4JL99: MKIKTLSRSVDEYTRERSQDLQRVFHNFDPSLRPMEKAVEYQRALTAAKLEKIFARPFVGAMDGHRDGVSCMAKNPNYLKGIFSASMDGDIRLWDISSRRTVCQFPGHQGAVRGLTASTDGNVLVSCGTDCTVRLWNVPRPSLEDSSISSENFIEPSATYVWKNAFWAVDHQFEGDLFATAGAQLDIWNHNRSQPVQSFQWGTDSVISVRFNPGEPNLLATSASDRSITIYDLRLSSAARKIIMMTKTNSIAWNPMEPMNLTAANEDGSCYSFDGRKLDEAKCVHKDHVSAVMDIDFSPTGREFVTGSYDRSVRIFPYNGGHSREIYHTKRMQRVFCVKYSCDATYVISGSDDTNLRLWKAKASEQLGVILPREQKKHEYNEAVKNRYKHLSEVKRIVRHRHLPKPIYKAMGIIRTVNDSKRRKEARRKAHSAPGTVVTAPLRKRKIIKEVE
UniProt F4KCY1: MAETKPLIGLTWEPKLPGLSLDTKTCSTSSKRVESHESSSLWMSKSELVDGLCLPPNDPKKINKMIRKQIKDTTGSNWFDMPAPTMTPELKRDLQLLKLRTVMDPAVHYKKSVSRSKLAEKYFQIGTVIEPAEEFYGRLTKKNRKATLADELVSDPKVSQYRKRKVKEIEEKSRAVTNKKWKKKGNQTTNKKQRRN
UniProt Q9SI58: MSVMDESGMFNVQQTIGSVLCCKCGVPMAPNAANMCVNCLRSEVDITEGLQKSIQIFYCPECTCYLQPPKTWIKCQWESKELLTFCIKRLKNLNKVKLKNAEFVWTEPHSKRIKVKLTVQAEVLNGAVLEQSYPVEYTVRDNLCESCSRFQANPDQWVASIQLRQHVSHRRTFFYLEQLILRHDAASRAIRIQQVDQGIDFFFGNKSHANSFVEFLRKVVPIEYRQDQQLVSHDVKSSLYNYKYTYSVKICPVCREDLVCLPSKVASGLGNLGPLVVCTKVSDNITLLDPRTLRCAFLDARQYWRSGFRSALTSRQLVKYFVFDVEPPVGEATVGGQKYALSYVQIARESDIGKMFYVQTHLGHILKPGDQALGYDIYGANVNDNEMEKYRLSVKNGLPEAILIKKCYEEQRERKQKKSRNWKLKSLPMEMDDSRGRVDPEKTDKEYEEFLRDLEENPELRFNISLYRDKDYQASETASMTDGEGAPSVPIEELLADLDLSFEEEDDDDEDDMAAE
UniProt Q9LPP3: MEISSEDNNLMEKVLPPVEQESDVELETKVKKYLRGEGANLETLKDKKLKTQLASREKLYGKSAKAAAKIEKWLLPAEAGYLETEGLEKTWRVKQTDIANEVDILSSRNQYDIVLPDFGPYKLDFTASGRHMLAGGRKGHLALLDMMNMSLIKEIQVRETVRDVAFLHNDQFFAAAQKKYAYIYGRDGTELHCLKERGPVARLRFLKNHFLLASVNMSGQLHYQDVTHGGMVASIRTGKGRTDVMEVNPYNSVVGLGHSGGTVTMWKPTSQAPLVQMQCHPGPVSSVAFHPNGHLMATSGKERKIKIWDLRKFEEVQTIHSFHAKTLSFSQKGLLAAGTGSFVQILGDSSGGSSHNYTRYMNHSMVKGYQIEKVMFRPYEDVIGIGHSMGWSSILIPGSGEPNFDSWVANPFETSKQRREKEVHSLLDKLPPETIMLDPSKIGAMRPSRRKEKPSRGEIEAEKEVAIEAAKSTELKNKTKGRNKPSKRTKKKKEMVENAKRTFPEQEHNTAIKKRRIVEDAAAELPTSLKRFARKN

T1: AtMTR4-GFP (Arabidopsis thaliana) (UniProt Q9XIF2)
T1 sequence: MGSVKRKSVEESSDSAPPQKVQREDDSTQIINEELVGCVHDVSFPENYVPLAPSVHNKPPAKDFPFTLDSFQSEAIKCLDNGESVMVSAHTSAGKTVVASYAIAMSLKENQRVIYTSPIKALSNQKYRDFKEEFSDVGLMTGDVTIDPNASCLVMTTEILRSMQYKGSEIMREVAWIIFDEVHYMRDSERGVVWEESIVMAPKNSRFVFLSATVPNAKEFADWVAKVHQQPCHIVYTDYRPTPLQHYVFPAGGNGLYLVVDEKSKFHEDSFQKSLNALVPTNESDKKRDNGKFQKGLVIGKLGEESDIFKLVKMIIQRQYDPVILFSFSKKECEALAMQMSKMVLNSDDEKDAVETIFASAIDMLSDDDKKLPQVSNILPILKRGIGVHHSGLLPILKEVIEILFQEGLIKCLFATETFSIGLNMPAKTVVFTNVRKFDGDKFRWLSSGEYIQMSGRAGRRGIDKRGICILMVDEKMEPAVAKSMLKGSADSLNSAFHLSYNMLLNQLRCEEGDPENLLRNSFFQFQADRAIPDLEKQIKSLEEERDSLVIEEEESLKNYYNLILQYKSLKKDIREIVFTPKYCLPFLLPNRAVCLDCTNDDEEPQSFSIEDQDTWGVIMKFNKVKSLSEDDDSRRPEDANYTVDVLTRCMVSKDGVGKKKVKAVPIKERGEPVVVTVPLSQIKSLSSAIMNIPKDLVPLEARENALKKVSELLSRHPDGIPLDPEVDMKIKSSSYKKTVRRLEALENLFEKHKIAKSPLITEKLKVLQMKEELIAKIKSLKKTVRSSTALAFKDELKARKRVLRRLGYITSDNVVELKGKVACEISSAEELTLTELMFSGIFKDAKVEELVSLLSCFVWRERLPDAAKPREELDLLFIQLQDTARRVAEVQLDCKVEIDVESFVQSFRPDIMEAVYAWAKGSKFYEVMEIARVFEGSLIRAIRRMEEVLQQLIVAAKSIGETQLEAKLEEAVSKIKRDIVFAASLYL

B1: Periodic tryptophan protein 2 (protein, UniProt Q8VYZ5 1-900)
chain: MEFRFENLLGAPYRGGNAVITKNTQLISPVGNRVSVTDLSKNHSVTLPLETSTNICRLASSPDGTFLLAVDEQNRCLFINLPRRVVLHRITFKDKVGALKFSPNGKFIAVGIGKLVEIWRSPGFRRAVLPFERVRTFANSDDKVVSLEWSLDSDYLLVGSRDLAARLFCVRKLKGVLNKPFLFLGHRDSVVGCFFGVDKMTNKVNRAFTIARDGYIFSWGYTEKDVKMDESEDGHSEPPSPVTPDRADEVMVENGGGVGTELKKRKEYDGKGLESDEEGDDDDEEYMHRGKWVLLRKDGCNQASAKVTACDYHQGLDMVVVGFSNGVFGLYQMPDFICIHLLSISRQKLTTAVFNERGNWLTFGCAKLGQLLVWDWRTETYILKQQGHYFDVNCVTYSPDSQLLATGADDNKVKVWNVMSGTCFITFTEHTNAVTALHFMADNHSLLSASLDGTVRAWDFKRYKNYKTYTTPTPRQFVSLTADPSGDVVCAGTLDSFEIFVWSKKTGQIKDILSGHEAPVHGLMFSPLTQLLASSSWDYTVRLWDVFASKGTVETFRHNHDVLTVAFRPDGKQLASSTLDGQINFWDTIEGVLMYTIEGRRDIAGGRVMTDRRSAANSSSGKCFTTLCYSADGGYILAAGTSRYICMYDIADQVLLRRFQISHNLSLDGVLDFLHSKKMTEAGPIDLIDDDNSDEEGGIDKQSRGNLGYDLPGSRPNRGRPIIRTKSLSIAPTGRSFAAATTEGVLIFSIDDTFIFDPTDLDIDVTPEAVEAAIEEDEVSRALALSMRLNEDSLIKKCIFAVAPADIKAVAISVRQKYLERLMEALVDLLENCPHLEFILHWCQEICKAHGSSIQRNYRTLLPALRSLQKAITRAHQDLADMCSSNEYTLRYLCSVPNNH
B2: POPCORN (protein, UniProt Q8RXU6 1-815)
chain: MLEYRCSSVDWKPSPVVALANSSDDSQVAAAREDGSLEIWLVSPGAVGWHCQLTIHGDPNSRISSLAWCCSPSIGLPSGRLFSSSIDGSISEWDLFDLKQKIVLESIGISIWQMALAPISGFSSDVEGIKNGYLSEKSNDEEEIGSEEDGSDSDEFHEKSEEEIDRILAAACDDGCVRLYRISNLEKLTYYRSLPRVSGRALSVTWSPDAKRIFSGSSDGLIRCWDATSCHEVYRITAGLGGLGSSSEICVWSLLSLRCSVLVSGDSTGTVQFWDSEHGTLLEAHSNHKGDVNTLAAAPSHNRVFSAGADGQVILYKLSGSTNGSQDLKPSSSQKWDYIGYVKAHTHDIRALTVAVPISREDPFPDDILPDKASRKHRKKGKPVDFTYHKWAHLGVPMLISAGDDAKLFAYSIQEFTKFSPHDICPAPQRIPMQMVHNSMFNKTSLLLVQGISTLDILRLNISSDSSGRASTKSLVRVKSRDARKIICSAISNTGSHFAYSDQIGPSLFELKKNEFTKCPWSVSRRRLPELPFAHSMIFSSDCSRLIIAGHDRRIYTIDISSLELVYAFTPSREEHEGEAPTPKEPPITKLFTSSDGQWLAAINCFGDIYVFNLETQRQHWFISRLDGASVTAAGFHPWNNNALVISTSSNQVFAFDVEARQLGKWSLLNTYVLPKRYQEFPGEVLGLSFSPSPNSSSVIVYSSRAKCLIDFGKPVEEDEEYDLPNGNLSKTLEGKLVNLGLKKGKGTNRKRRLDEYQLEGKSNERKNFEILPSNHPVLFVGHLSKNSILVIEKPWMDVVKSLDNQPVDRHIFGT
B3: unknown protein, DUF1726 (AT3G57940) (protein, UniProt Q9M2Q4 1-1028)
chain: MRKKVDERIRTLIENGVKLRHRSMFVIIGDKSRDQIVNLHHMLSKAVIKCNPSVLWCYKDKLDISSHKQKRSKQLKRLRERGQLDPEKLDAFSRLLDVGRVTHCLYKDSERILGNTFGMCILQDFEALTPNLLARTIETVEGGGLVVLILRSLTSLTSLCTMVMDVHDRFRTESHSEAAGRFNERFLLSLASCKACVVMDDELNILPLSSHIRSITQVPTEKDSEGLSEAERDLKSLKEDLSDDFPVGPLIKKCCTLDQGKAVVTFFDAILDKALRSIVALIASRGRGKSAALGLAVAGAVAAGYSNIYITAPSPDNLKTFFEFVCKGFDALEYKEHLDYDVVKSANPDFKKAVVRINIFKQHRQTIQYIQPHEHEKLSQVELLVIDEAAAIPLPVVKSLLGPYLVFLSSTVSGYEGTGRSLSLKLLQQLDEQSRAPATGLEGSGCLFKKIELTESIRYGSGDPIESWLNGLLCLDVATCLPNPACHPSPSQCDLYYVNRDTLFSYHKDSELFLQRMMALCVSSHYKNSPNDLQLLADAPAHHLFVLLGPVDESQNKIPDILCVIQVCLEGKISENSALQSLRDGHSPYGDQIPWKFCEQFRDTEFPGFSGARIVRIAVHPNAMKMGYGSAAVELLTRYFEGQIAPISEAEDKVDVEHAPIKVTEAAEKVSMLEEQVKPRTNLPPLLVPLHDRRPEKLHYIGVSFGLTLDLFRFWRKHNFAPFYVSQIPSAVTGEHTCMLLKPLKNDELEVNESDELGFFTPFYKDFKIRFSKLLSDKFKKMDYKLAMSVLNPKINFAEVDSSGSSSGGFLKTLNGILSPYDMERLRAYTENLTDFNLVYDICKTLAHQYFEEKLPVSLSYVQASILLCLGLQETDFSSIERQMQLERGQIHSLLLKVARELYKYLNGVAGKEIKSALPRLKERELTAHNVSVDDDIREGAKQVEEQMKKEKIEGLMDSELQQYVIGDKEAEALQHSKISSSGIISVKSTKSENENGFDKSTKKRSSDKRSSSSSKSKSSKKRKSLKE
B4: TORMOZ EMBRYO … (protein, UniProt Q9LFE2 1-876)
chain: MAPHSLKKNYRCSRSLKQFYGGGPFIVSSDGSFIACACGDVINIVDSTDSSVKSTIEGESDTLTALALSPDDKLLFSAGHSRQIRVWDLETLKCIRSWKGHEGPVMGMACHASGGLLATAGADRKVLVWDVDGGFCTHYFRGHKGVVSSILFHPDSNKNILISGSDDATVRVWDLNAKNTEKKCLAIMEKHFSAVTSIALSEDGLTLFSAGRDKVVNLWDLHDYSCKATVATYEVLEAVTTVSSGTPFASFVASLDQKKSKKKESDSQATYFITVGERGVVRIWKSEGSICLYEQKSSDITVSSDDEESKRGFTAAAMLPSDHGLLCVTADQQFFFYSVVENVEETELVLSKRLVGYNEEIADMKFLGDEEQFLAVATNLEEVRVYDVATMSCSYVLAGHKEVVLSLDTCVSSSGNVLIVTGSKDKTVRLWNATSKSCIGVGTGHNGDILAVAFAKKSFSFFVSGSGDRTLKVWSLDGISEDSEEPINLKTRSVVAAHDKDINSVAVARNDSLVCTGSEDRTASIWRLPDLVHVVTLKGHKRRIFSVEFSTVDQCVMTASGDKTVKIWAISDGSCLKTFEGHTSSVLRASFITDGTQFVSCGADGLLKLWNVNTSECIATYDQHEDKVWALAVGKKTEMIATGGGDAVINLWHDSTASDKEDDFRKEEEAILRGQELENAVLDAEYTKAIRLAFELCRPHKVFELFSGLCRKRDSDEQIVKALQGLEKEEFRLLFEYVREWNTKPKLCHIAQFVLYKTFNILPPTEIVQVKGIGELLEGLIPYSQRHFSRIDRFVRSSFLLDYTLGEMSVIDPETVETEYPKDEKKKEKDVIAAMEQDTDELKQETPSRKRKSQKSKGKSNKKRLIAEAQGSVIAV
B5: RNA cyclase family protein (protein, UniProt Q9C578 1-375)
chain: MVMMKKMKGSQSFRQRLLLSTLSSTPISIDEIRADETIPGLRPHEVNLLRLLEIVTDDAVVDINETGTRLKYKPGTIVGGKNLVHSCSLSRSIGYYLEPLLLLGLFGKKPLSIRLKGITNDPRDASVDTFRSTTLNIIKRFGVPAEDLELKIEARGVAPNGGGEVLLTVPNIKTLSAVHWVEEGMVKKIRGTTFSTRVTSDFEHSMRFAARGIFNNLLPDVHIFQDHRAGAQAGKSPGYGISLAAETTTGCFISADTTVSCERPDETGELDVEKKERSPAEDTGVEVASWLLQEIEKGGVVDSTHQGLLFLLCALSEQDVSKVRVGTLSPYAVETLRNIKEFLGVKFAIKPDPLTGTVILKCTGSGLINLSRKLS

Target: T1, AtMTR4-GFP (Arabidopsis thaliana)
Experiment: affinity purification with mass spectrometry; AtMTR4-GFP (own promoter, mtr4 background) extracted from flowers, held on anti-GFP magnetic microparticles (MACS), SDS omitted from washing buffers; LC-MS/MS; triplicates crossed, proteins of mock IPs excluded

Molecule	binding
YAOZHE (from UniProt Q9M0V4)	binds
Nop14-like protein	binds
nucleolar essential protein-related, EMG1/NEP1 domain (from UniProt Q9M1J8)	binds
U3 small nucleolar RNA-associated protein 10 domain (from UniProt Q9C8Z4 1-2197)	binds
BMS1 domain protein	binds
contains small-subunit processome Utp12 domain (AT1G15420)	binds
IMP4, putative U3 small nucleolar ribonucleoprotein (from UniProt Q9S826)	binds
WD-40 repeat protein (AT4G28450) (from UniProt F4JL99)	binds
Fcf2 pre-rRNA processing protein (from UniProt F4KCY1)	binds
NONSENSE-MEDIATED MRNA DECAY 3 (from UniProt Q9SI58)	binds
Transducin/WD40 repeat protein (AT3G10530) (from UniProt Q9LPP3)	binds
B1	binds
B2	binds
B3	binds
B4	binds
B5	binds
